Drawing on PubChem BioAssay AID445 (National Center for Advancing Translational Sciences (NCATS), 2006), this text covers AC50 for 40 compounds.

Some of the results follow. The main result of the screen is listed elsewhere. These columns were measured beside it and carry no call. Most of these compounds were active or inconclusive in the main read-out, so they are no random draw. Potencies come from curve fits of mixed quality, noted in brackets.

The experiment is described as follows: IkB Signaling. As to conditions: ABC-DLBCL IkBa-CBG/CBR dual luciferase ratio (green luciferase fused to IkBa over red control in OCI-Ly3 lymphoma cells), 4 h; measured here: control luc red channel unless noted. Put shortly: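 Curves were fitted separately to fusion (green), unfused (red) and ratio luminescence, then classed by r2, magnitude and activity. Cells: OCI-Ly3, 4 h compound plus doxycycline at 37C; 10 uM MG-132 defined full response.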
For the compound `CCC1(c2cccc(Cl)c2)NC(=O)N(Cc2cc(C(=O)OC)c(C)o2)C1=O` (stereo not given), the AC50 is 15.8 µM [falling, partial curve].

Consider `Cc1ccnc(NC(=O)CCC2COc3ccccc3O2)c1` (stereo not given), for which the AC50 was 15.8 µM [falling, partial curve]. Take `Cc1cc(C(=O)NCCc2ccc(Cl)cc2)c2c(C)nn(-c3cccc(F)c3)c2n1`: the AC50 was 39.8 µM [falling, single point]. Under `O=C(C1CCCN(S(=O)(=O)c2cccc3cccnc23)C1)N1CCc2ccccc21` (stereo not given) stands 15.8 µM [falling, partial curve]; under `COc1ccc(N(CC(=O)NCCc2cccc(C)c2)S(=O)(=O)c2c(C)noc2C)cc1`, 15.8 µM [falling, single point]; under `CC(C)Oc1ccc(CNC(=O)CCn2c(=O)c3cccn3c3ccc(F)cc32)cc1`, 25.1 µM [falling, partial curve]. Under `O=C(Nc1ccc2c(c1)N(C1CCCC1)C(=O)c1ccccc1S2)c1cccc(F)c1` stands 39.8 µM [falling, single point].

As for `COc1cccc(-n2c(=O)c3c(C)c(C(=O)N(C)C)sc3n(CC(=O)Nc3ccc(C)cc3Cl)c2=O)c1`, the AC50 was 1.26 µM [rising, full curve]. Under `Cc1c(C)n(Cc2ccccc2)c2ccc(C(=O)NCCc3ccccc3Cl)cc12` stands 1.58 µM [rising, full curve]; under `O=C(NCCc1csc(-c2cccc(F)c2)n1)c1ccc(Br)o1`, 15.8 µM [falling, partial curve]; under `O=C1CC(c2nc(-c3cccc(Cl)c3)no2)CN1c1ccc2c(c1)OCCO2` (stereo not given), 15.8 µM [falling, partial curve]. Under `COc1ccc2[nH]c(=O)c(CN(Cc3ccccc3)Cc3nnnn3CC3CCCO3)cc2c1` (stereo not given) stands 12.6 µM [falling, partial curve]; under `Cc1n[nH]c(C)c1S(=O)(=O)N(CC(=O)NCc1ccccc1Cl)c1ccc(C(C)C)cc1`, 25.1 µM [falling, partial curve]. Under `CCOc1ccccc1CNC(=O)CCc1cn(Cc2ccc(Cl)cc2)c2ccccc12` stands 12.6 µM [falling, partial curve].

Consider `CCN(C(=O)Cn1c(=O)oc2cc(S(=O)(=O)N3CCCC3)ccc21)c1cccc(C)c1`, for which the AC50 was 31.6 µM [falling, single point]. For `CCCCN(C)C(=O)C1CCC(CNS(=O)(=O)c2ccc3c(c2)CC(C)N3C(C)=O)CC1` (stereo not given) the value was 15.8 µM [falling, single point]; for `Cn1c(=O)[nH]c(=O)c2c1nc(N1CCN(Cc3ccccc3)CC1)n2CCCc1ccccc1`, 39.8 µM [falling, single point]. Under `CCN(CC)C(=O)Cn1c(SCCOc2ccc(Cl)cc2)nc2ccccc21` stands 39.8 µM [falling, single point]; under `COc1ccc(OC)c(S(=O)(=O)Nc2cc3c(C(C)=O)c(C)oc3c3ccccc23)c1`, 25.1 µM [falling, single point]; under `COc1ccc(-c2nnc(SCC(=O)Nc3ccc(C(C)=O)cc3)nc2-c2ccc(OC)cc2)cc1`, 25.1 µM [falling, single point].

Take `N=C1C(c2ccc(Br)cc2)=C(O)C2CCc3ccccc3N12` (stereo not given): the AC50 is 5.01 µM [falling, partial curve]. Under `Cc1ccc(S(=O)(=O)NCC2CCC(C(=O)N(C)Cc3ccccc3)CC2)cc1` (stereo not given) stands 25.1 µM [falling, partial curve]; under `CC(Oc1ccc(F)cc1)C(=O)Nc1cc(-c2ccc(F)c(F)c2)no1` (stereo not given), 2 µM [rising, full curve]; under `CCOc1ccc(CCNC(=O)c2c(C)oc3ncnc(N4CCOCC4)c23)cc1`, 0.158 µM [falling, full curve, poor fit]. For `Cc1ccc(NC(=O)CN2C(=O)COc3ccc(S(=O)(=O)N4CCCCCC4)cc32)cc1C` the value was 20 µM [falling, single point]. On to `COCCCNC(=O)CSc1nc2ccccc2c(=O)n1Cc1ccco1`, for which the AC50 was 6.31 µM [rising, single point].

Regarding `CCOc1cccc(CNc2ccc(O)cc2)c1OCc1ccccc1Cl`, the AC50 was 31.6 µM [falling, partial curve]. Take `COc1ccc(CNC(=O)c2ccc3[nH]c(C)c(C)c3c2)c(OC)c1`: the AC50 is 12.6 µM [falling, single point]. Regarding `CCc1nnc2c(NCCc3ccc(OC)c(OC)c3)nc3ccccc3n12`, the AC50 is 39.8 µM [falling, single point]. For `COc1ccc(-c2onc(C)c2C)cc1S(=O)(=O)NCc1ccc(Br)cc1` the value was 2.51 µM [falling, partial curve].

Regarding `COc1cc(-c2ccc(N=Nc3ccc4c(S(=O)(=O)O)cc(S(=O)(=O)O)c(N)c4c3O)c(OC)c2)ccc1N=Nc1ccc2c(S(=O)(=O)O)cc(S(=O)(=O)O)c(N)c2c1O`, the AC50 was 39.8 µM [falling, single point]. For `CCCCOc1ccc(C(=O)NCCc2sc(-c3cccc(F)c3)nc2C)cc1` the value was 15.8 µM [falling, partial curve]; for `O=C(Nc1ccc(NC(=O)c2cccs2)cc1)c1cccc(Br)c1`, 0.1 µM [rising, full curve, poor fit]. For the compound `CNc1ccc(C(O)(C(F)(F)F)C(F)(F)F)cc1C(O)(C(F)(F)F)C(F)(F)F`, the concentration at half-maximal activity (AC50) is 25.1 µM [falling, partial curve]. Under `COc1ccc(N2CCN(S(=O)(=O)c3ccc(OC)c(-c4noc(C)n4)c3)CC2)cc1` stands 39.8 µM [falling, single point]; under `O=C(c1cc2c(s1)-c1ccccc1OC2)N1CCCC1`, 10 µM [falling, partial curve]; under `CN(C)CCC(=O)c1ccc2c(c1)OCO2`, 12.6 µM [falling, partial curve]. For `c1ccc2c(c1)nc(N1CCN(C3CCCCC3)CC1)c1nnnn12` the value was 3.98 µM [falling, partial curve]; for `CC(C)(C)c1csc(NC(=O)CSc2nc3ccccc3c(=O)[nH]2)n1`, 15.8 µM [falling, partial curve].

Consider `CCOc1ccccc1NC(=O)C(C)Sc1nc(-c2ccccc2)c(C#N)c(=O)[nH]1` (stereo not given), for which the AC50 is 5.01 µM [falling, partial curve].

The term AC50 denotes the concentration at which the activity in the assay is half-maximal.
